Measurements reported in paper PMC7981807.
No constants are given. Whether binding was seen depends on the method and setting. Binding seen in cells or lysates may run through a third protein. Some binding calls cover weakened binding; strength is not graded here.

Chains of the proteins cited; added tags and fusions are not shown.
UniProt Q01196: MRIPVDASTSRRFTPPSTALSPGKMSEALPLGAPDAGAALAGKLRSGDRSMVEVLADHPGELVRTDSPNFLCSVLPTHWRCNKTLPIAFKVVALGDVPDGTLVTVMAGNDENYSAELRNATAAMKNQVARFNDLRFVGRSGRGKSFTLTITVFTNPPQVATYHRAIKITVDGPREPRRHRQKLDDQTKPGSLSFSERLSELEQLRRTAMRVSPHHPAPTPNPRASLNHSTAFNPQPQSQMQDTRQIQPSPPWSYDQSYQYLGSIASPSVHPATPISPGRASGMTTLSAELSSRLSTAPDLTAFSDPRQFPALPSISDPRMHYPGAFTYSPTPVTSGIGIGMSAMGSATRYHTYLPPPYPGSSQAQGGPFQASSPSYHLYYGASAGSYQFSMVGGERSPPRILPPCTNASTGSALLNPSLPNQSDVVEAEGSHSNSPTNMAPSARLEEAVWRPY
UniProt Q13547: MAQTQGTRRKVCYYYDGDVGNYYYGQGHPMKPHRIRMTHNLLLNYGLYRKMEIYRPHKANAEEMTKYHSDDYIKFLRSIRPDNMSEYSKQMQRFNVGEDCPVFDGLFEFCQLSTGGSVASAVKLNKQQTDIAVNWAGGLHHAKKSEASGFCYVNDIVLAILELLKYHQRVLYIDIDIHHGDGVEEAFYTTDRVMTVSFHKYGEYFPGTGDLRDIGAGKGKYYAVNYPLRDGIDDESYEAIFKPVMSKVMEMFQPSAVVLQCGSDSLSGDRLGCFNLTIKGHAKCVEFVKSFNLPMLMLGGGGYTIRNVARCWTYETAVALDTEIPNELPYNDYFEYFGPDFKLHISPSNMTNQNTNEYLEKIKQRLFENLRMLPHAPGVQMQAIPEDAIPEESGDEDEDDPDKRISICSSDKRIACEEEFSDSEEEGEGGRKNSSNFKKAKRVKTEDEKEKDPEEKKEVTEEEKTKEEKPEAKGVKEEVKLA
UniProt Q92793: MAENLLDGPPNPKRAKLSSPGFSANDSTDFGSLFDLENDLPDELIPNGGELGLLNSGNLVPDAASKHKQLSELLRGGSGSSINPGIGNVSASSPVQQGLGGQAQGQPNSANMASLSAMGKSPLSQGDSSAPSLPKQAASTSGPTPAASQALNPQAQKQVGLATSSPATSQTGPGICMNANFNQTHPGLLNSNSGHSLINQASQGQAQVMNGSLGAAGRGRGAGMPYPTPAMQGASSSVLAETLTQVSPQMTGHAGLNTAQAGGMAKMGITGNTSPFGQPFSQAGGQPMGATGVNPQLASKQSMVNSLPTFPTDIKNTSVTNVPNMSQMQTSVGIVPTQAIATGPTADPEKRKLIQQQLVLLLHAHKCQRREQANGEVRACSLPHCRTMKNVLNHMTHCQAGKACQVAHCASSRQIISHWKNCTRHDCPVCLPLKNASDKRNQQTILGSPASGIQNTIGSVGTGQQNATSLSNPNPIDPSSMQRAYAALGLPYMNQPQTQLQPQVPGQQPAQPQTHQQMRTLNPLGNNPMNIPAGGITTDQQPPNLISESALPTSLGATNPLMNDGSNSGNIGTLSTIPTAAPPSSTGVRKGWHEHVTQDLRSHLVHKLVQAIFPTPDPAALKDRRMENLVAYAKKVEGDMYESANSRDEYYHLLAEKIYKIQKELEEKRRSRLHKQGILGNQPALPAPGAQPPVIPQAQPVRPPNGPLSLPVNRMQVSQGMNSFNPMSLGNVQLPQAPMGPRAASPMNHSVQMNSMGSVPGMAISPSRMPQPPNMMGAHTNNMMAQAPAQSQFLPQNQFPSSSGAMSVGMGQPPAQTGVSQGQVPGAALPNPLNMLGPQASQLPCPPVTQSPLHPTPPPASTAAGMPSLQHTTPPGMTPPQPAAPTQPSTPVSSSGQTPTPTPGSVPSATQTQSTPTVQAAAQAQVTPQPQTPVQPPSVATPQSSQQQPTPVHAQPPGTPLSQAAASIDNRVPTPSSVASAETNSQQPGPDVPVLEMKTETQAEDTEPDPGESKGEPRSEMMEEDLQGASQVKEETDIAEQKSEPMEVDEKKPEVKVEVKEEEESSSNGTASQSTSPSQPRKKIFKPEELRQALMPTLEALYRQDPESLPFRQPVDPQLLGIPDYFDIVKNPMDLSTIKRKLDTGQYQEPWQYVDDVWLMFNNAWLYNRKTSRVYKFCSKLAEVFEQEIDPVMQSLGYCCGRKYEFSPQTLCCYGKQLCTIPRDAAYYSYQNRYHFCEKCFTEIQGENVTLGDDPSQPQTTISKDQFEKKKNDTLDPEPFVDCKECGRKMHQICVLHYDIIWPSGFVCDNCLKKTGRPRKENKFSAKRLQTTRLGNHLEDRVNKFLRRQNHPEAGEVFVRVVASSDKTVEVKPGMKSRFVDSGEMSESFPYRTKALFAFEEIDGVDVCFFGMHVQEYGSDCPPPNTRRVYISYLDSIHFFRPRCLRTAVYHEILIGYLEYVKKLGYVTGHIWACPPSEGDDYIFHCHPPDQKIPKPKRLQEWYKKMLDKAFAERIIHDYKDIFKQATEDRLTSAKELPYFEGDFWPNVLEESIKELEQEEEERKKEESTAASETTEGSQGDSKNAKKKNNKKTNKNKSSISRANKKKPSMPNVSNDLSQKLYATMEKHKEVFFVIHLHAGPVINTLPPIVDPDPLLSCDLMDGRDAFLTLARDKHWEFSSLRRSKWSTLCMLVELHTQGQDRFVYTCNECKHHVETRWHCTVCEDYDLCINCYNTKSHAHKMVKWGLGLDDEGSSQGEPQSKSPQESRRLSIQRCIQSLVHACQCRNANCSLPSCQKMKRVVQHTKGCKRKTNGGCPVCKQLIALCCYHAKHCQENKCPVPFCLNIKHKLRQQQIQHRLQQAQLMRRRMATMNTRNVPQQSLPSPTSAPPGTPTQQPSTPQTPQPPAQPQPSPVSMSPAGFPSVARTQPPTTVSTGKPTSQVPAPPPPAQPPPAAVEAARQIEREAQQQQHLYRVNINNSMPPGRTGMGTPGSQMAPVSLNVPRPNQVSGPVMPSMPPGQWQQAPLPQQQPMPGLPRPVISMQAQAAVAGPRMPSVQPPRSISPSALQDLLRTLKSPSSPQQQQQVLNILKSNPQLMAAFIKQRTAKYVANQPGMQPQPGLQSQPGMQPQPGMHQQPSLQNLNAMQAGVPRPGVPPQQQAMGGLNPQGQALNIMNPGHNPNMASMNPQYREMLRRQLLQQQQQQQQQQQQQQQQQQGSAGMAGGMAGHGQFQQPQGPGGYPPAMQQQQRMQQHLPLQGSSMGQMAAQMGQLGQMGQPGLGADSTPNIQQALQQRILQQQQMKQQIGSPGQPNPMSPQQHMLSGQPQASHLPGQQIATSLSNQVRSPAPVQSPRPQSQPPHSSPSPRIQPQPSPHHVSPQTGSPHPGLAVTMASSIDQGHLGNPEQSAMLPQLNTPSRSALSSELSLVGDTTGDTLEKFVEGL
UniProt Q09472: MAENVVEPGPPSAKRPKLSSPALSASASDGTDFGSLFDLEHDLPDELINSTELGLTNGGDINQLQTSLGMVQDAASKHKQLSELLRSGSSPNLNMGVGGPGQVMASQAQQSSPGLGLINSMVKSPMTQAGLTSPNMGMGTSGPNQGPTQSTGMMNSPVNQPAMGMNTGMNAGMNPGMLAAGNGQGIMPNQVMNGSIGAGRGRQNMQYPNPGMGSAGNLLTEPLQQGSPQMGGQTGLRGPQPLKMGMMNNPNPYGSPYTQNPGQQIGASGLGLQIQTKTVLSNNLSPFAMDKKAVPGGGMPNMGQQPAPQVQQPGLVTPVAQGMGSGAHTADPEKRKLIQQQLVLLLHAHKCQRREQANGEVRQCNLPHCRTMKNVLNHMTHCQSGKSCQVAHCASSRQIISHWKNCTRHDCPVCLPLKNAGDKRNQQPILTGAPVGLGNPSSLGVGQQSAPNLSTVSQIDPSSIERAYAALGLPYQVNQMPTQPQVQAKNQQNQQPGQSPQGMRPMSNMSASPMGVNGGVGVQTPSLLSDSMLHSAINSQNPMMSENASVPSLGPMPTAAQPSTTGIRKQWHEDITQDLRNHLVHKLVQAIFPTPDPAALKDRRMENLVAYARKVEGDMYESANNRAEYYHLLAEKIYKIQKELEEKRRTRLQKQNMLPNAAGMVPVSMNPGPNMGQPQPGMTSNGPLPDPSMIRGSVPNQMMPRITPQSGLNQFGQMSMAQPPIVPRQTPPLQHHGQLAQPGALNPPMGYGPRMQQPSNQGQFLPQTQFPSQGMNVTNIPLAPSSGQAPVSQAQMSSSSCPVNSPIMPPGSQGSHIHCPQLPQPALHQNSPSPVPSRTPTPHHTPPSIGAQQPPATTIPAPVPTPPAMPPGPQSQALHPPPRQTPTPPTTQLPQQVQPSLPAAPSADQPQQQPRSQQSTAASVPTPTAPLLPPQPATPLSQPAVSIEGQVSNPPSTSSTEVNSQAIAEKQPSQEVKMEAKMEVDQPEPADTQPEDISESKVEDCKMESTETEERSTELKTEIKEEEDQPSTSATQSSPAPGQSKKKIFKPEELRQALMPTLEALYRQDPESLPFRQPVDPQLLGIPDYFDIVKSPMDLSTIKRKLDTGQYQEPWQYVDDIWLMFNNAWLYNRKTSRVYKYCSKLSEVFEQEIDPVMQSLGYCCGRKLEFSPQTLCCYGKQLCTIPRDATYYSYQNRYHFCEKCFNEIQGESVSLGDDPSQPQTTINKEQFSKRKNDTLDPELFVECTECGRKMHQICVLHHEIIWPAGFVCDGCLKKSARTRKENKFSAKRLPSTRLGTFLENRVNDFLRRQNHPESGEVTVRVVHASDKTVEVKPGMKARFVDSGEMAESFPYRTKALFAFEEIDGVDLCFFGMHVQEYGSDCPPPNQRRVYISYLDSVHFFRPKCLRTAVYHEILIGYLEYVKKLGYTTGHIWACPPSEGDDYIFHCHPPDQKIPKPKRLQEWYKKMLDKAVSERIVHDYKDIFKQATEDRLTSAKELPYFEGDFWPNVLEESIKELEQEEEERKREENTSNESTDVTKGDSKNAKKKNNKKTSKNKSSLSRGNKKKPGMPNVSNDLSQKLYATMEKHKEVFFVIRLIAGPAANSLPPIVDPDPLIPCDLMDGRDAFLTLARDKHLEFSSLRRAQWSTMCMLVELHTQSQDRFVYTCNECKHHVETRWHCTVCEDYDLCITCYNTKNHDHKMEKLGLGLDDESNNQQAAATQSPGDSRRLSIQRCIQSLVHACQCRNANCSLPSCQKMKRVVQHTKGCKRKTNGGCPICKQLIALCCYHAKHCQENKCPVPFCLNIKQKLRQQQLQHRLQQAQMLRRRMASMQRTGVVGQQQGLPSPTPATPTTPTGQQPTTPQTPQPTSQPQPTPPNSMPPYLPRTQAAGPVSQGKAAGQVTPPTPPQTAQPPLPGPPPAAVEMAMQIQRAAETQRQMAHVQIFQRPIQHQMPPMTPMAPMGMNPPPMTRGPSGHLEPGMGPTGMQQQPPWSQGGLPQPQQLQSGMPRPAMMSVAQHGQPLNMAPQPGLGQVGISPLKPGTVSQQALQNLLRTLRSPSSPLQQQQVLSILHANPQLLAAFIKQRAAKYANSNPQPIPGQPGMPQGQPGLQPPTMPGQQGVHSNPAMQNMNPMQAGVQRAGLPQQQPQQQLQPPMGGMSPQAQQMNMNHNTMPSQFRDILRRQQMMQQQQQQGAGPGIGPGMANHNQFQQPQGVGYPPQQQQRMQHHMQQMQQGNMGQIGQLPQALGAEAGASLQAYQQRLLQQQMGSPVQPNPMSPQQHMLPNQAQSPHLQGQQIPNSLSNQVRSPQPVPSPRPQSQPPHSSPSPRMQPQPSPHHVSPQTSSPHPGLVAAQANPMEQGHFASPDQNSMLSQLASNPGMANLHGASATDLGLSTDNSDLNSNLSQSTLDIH

How the values were obtained:
[1] = molecular target: RUNX1 (Runt Related Transcription Factor 1), endogenous (human (endogenous in REH, Nalm6 and BCP-ALL patients' cells)) (UniProt Q01196); test: co-IP; RUNX1 antibody (IgG as control) in REH cells, endogenous proteins; blots with RUNX1 and CBFA2T3 antibodies
[2] = molecular target: HDAC1, endogenous (human (endogenous in REH and Nalm6)) (UniProt Q13547); test: proximity ligation; Duolink PLA on endogenous proteins, dots per nucleus, in REH cells, Nalm6 cells and BCP-ALL patients' cells; cut-off two S.D. over the negative control, Fisher's exact test
[3] = molecular target: T1, SIN3A, endogenous (human (endogenous in REH and Nalm6)) (UniProt Q96ST3); test: as above
T1 sequence: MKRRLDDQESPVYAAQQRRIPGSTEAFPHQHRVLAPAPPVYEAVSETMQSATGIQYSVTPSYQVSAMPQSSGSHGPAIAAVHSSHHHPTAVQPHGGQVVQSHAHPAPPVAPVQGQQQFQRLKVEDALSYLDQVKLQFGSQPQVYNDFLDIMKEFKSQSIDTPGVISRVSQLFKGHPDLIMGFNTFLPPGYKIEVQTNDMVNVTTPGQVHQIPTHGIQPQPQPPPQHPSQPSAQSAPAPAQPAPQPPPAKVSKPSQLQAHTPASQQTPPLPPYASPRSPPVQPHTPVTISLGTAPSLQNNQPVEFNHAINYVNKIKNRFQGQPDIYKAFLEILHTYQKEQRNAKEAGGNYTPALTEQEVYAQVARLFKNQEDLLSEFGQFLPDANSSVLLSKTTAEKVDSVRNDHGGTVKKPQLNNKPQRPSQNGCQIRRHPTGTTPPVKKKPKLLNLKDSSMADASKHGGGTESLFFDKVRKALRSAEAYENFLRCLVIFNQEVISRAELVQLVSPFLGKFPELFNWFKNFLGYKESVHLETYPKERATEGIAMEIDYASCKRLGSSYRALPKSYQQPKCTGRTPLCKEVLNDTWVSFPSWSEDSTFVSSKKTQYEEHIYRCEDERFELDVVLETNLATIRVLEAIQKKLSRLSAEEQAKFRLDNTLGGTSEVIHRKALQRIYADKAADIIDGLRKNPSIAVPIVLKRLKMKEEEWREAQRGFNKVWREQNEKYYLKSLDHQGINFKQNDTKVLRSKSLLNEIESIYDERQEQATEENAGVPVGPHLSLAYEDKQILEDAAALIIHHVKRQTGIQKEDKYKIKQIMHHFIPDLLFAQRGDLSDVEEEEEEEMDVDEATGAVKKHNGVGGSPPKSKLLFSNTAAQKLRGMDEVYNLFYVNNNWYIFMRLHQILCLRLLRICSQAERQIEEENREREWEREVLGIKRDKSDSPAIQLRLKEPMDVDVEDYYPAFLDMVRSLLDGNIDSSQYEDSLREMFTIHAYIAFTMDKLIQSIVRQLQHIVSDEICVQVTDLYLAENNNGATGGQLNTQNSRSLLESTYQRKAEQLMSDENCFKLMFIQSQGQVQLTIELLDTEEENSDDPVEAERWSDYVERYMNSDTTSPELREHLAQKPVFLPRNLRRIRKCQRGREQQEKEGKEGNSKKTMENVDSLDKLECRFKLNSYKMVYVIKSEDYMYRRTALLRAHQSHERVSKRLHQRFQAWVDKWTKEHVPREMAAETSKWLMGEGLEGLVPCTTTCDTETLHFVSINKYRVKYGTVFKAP

[4] = molecular target: CREBPP (CBP), endogenous (human (endogenous in REH and Nalm6)) (UniProt Q92793); test: as above
[5] = molecular target: EP300 (P300), endogenous (human (endogenous in REH and Nalm6)) (UniProt Q09472); test: as above

Measured: binding

B1: CBFA2T3 (Core-Binding Factor Runt Domain Alpha Subunit 2 Translocated To 3), endogenous (protein, UniProt O75081 1-653)
chain: MPASRLRDRAASSASGSTCGSMSQTHPVLESGLLASAGCSAPRGPRKGGPAPVDRKAKASAMPDSPAEVKTQPRSTPPSMPPPPPAASQGATRPPSFTPHTHREDGPATLPHGRFHGCLKWSMVCLLMNGSSHSPTAINGAPCTPNGFSNGPATSSTASLSTQHLPPACGARQLSKLKRFLTTLQQFGSDISPEIGERVRTLVLGLVNSTLTIEEFHSKLQEATNFPLRPFVIPFLKANLPLLQRELLHCARLAKQTPAQYLAQHEQLLLDASASSPIDSSELLLEVNENGKRRTPDRTKENGSDRDPLHPEHLSKRPCTLNPAQRYSPSNGPPQPTPPPHYRLEDIAMAHHFRDAYRHPDPRELRERHRPLVVPGSRQEEVIDHKLTEREWAEEWKHLNNLLNCIMDMVEKTRRSLTVLRRCQEADREELNHWARRYSDAEDTKKGPAPAAARPRSSSAGPEGPQLDVPREFLPRTLTGYVPEDIWRKAEEAVNEVKRQAMSELQKAVSDAERKAHELITTERAKMERALAEAKRQASEDALTVINQQEDSSESCWNCGRKASETCSGCNAARYCGSFCQHRDWEKHHHVCGQSLQGPTAVVADPVPGPPEAAHSLGPSLPVGAASPSEAGSAGPSRPGSPSPPGPLDTVPR
binds: [1] | [2] | [3] | [4] | [5]
